Test results as given in the supplement of paper PMC12542422.
Structures can show the parent of a compound that is named as a salt. ± gives the standard deviation of the averaged measurements. The list shows a part of the results. Values are raw readings; no control value is given beside them.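 Ribosome-assembly readouts in HeLa cells were imaged via ENP1 staining, with or without export block, or inducible tagged ribosomal protein reporters. Machine learning classified per-cell signal location versus solvent (DMSO) controls. Hits surpassed the DMSO false-positive mean by five standard deviations and were visually confirmed; three biological replicates.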

System: HeLa K (ENP1 immunofluorescence, +LMB)
Test: fraction of cells with nucleolar or nucleolar/nucleoplasmic ENP1 signal (MainHitrate); higher = more cells with nucleolar/nuclear readout signal (for ENP1 -LMB: less RNAPI inhibition; for +LMB ENP1 and RP reporters: stronger nuclear/nucleolar retention, i.e. ribosome biogenesis defect)
Conditions: concentration: 1 µM; treatment time: 6 h; ENP1 +LMB; leptomycin B: 20 nM, last 1.5 h

SMILES	fraction
CCCCCCCCCCCCCCCC[n+]1ccccc1 [Cetylpyridinium Chloride]	0.0594 ± 0.071
C[C@]12CC[C@H]3[C@@H](CC[C@@]45O[C@@H]4C(O)=C(C#N)C[C@]35C)[C@@H]1CC[C@@H]2O [Trilostane]	0.0833 ± 0.057
C#C[C@]1(O)CC[C@H]2[C@@H]3CCC4=CC(=O)CC[C@]4(C)[C@H]3CC[C@@]21C [Ethisterone]	0.0804 ± 0.11
CCC1(c2cccc(O)c2)CCCCN(C)C1 (stereo not drawn) [Meptazinol HCl]	0.0816 ± 0.1
CCN(C)C(=O)Oc1cccc([C@H](C)N(C)C)c1 [Rivastigmine tartrate (Exelon)]	0.0642 ± 0.066
CN(C)C(=O)Oc1ccc[n+](C)c1 [Pyridostigmine Bromide (Mestinon)]	0.0771 ± 0.071
O=P1(N(CCCl)CCCl)NCCCO1 (stereo not drawn) [Cyclophosphamide monohydrate]	0.24 ± 0.38
COc1cc2c(cc1OC)[C@@]13CCN4CC5=CCO[C@H]6CC(=O)N2[C@H]1[C@H]6[C@H]5C[C@H]43 [Brucine]	0.141 ± 0.16
CC(C)NCC(O)c1ccccc1Cl (stereo not drawn) [Clorprenaline HCL]	0.0907 ± 0.13
C=C1CC[C@@]2(O)[C@H]3Cc4ccc(O)c5c4[C@@]2(CCN3CC2CC2)[C@H]1O5 [Nalmefene HCl]	0.12 ± 0.15
CC(=O)O[C@@]12CO[C@@H]1C[C@@H](O)[C@@]1(C)C(=O)[C@H](O)C3=C(C)[C@@H](O)C[C@@](O)([C@@H](OC(=O)c4ccccc4)[C@H]21)C3(C)C [10-DAB (10-Deacetylbaccatin)]	0.159 ± 0.24
CC[N+]1(C)CCCC(OC(=O)C(O)(c2ccccc2)c2ccccc2)C1 (stereo not drawn) [Pipenzolate Bromide]	0.172 ± 0.24
[O-][n+]1ccccc1[S-].[O-][n+]1ccccc1[S-].[Zn+2] [Pyrithione zinc]	0.132 ± 0.17
CC(C)C[C@H]1C(=O)N2CCC[C@H]2[C@]2(O)O[C@](NC(=O)[C@@H]3C=C4c5cccc6[nH]c(Br)c(c56)C[C@H]4N(C)C3)(C(C)C)C(=O)N12 [Bromocriptine Mesylate]	0.0799 ± 0.076
NCC1(CC(=O)O)CCCCC1 [Gabapentin (Neurontin)]	0.107 ± 0.14

System: HeLa K (ENP1 immunofluorescence, no LMB)
Test: as above
Conditions: concentration: 1 µM; treatment time: 6 h; ENP1 -LMB; leptomycin B: none

SMILES	fraction
CC(C)c1c(CN(C)C(C)Cc2ccccc2)n(C)n(-c2ccccc2)c1=O (stereo not drawn) [Famprofazone]	0.9979 ± 0.0037
CCC(COC(=O)c1cc(OC)c(OC)c(OC)c1)(c1ccccc1)N(C)C (stereo not drawn) [Trimebutine]	0.993 ± 0.012
CC(=O)O[C@H]1C[C@@H]2CC[C@@H]3[C@H](CC[C@@]4(C)[C@H]3C[C@H]([N+]3(C)CCCCC3)[C@@H]4OC(C)=O)[C@@]2(C)C[C@@H]1[N+]1(C)CCCCC1 [Pancuronium (Pavulon)]	0.9949 ± 0.0088
CC(C)N(CCC(C(N)=O)(c1ccccc1)c1ccccn1)C(C)C (stereo not drawn) [Disopyramide Phosphate]	0.9965 ± 0.0061
CC[C@H]1CN2CCc3cc(OC)c(OC)cc3[C@@H]2C[C@@H]1C[C@H]1NCCc2cc(OC)c(OC)cc21 [Emetine]	0.9968 ± 0.0055
CCOC(=O)c1cncn1[C@H](C)c1ccccc1 [Etomidate]	0.997 ± 0.0053
COc1ccc(OC)c(C(O)C(C)N)c1 (stereo not drawn) [Methoxamine HCl]	0.9964 ± 0.0063
CCCN1C[C@H](CSC)C[C@@H]2c3cccc4[nH]cc(c34)C[C@H]21 [Pergolide mesylate]	0.981 ± 0.033
CC(C)N(CCNC(=O)CN1CCCC1=O)C(C)C [Pramiracetam]	0.984 ± 0.028
CN1[C@@H]2CC[C@H]1C[C@@H](OC(=O)[C@H](CO)c1ccccc1)C2 [Hyoscyamine (Daturine)]	0.9946 ± 0.0094
c1ccc2c(c1)sc1ccccc12 [Dibenzothiophene]	0.9944 ± 0.0097
Cc1cccc(C)c1NC1=NCCCS1 [Xylazine HCl]	0.9951 ± 0.0084
NCC1(CC(=O)O)CCCCC1 [Gabapentin Hydrochloride]	0.9974 ± 0.0045
CCCCCCCCCCCCCCCC[n+]1ccccc1 [Cetylpyridinium Chloride]	0.976 ± 0.041
C[C@]12CC[C@H]3[C@@H](CC[C@@]45O[C@@H]4C(O)=C(C#N)C[C@]35C)[C@@H]1CC[C@@H]2O [Trilostane]	0.9988 ± 0.002
C#C[C@]1(O)CC[C@H]2[C@@H]3CCC4=CC(=O)CC[C@]4(C)[C@H]3CC[C@@]21C [Ethisterone]	0.989 ± 0.019
CCC1(c2cccc(O)c2)CCCCN(C)C1 (stereo not drawn) [Meptazinol HCl]	0.994 ± 0.011
CCN(C)C(=O)Oc1cccc([C@H](C)N(C)C)c1 [Rivastigmine tartrate (Exelon)]	0.9964 ± 0.0062
